# Inconclusive results, whose numbers are uncertain, are shown with a selection of clear calls. Where the call is inconclusive, the potency comes from a doubtful curve fit. Active and inactive are the calls of the source. Calls follow the shape of the dose curve; as a rule, active = well fitted curve in the direction sought with a large enough effect; inconclusive = small, poorly fitted or top-dose-only effect, or effect the other way, or another doubt; inactive = no such curve, though single readings can be large or run the other way.
# By UniProt entry, the sequences of proteins in these tests, tags left out. Where a name states a change or a piece, a line headed by the entry shows the natural chain unless it says otherwise.
# UniProt P34981: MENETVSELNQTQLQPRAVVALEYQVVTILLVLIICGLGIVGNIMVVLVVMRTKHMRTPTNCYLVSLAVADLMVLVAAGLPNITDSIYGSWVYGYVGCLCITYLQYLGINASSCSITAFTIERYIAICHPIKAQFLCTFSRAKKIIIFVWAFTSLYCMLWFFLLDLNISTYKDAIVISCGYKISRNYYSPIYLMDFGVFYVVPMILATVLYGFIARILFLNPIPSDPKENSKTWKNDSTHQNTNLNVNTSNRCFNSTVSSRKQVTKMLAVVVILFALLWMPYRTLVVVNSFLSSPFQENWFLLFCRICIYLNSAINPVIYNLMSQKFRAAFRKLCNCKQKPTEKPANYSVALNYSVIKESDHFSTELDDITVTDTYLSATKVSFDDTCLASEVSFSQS
# Biological target: Thyrotropin-releasing hormone receptor (Homo sapiens) (UniProt P34981)
# Assay: qHTS for Small Molecule Agonists and Allosteric Enhancers of Human TRH Receptor: Confirmation Screen for Enhancers; as to activity change, negative = inhibition: 0% is about no effect
# Conditions: TRH receptor cell assay, enhancer confirmation qHTS; series mostly up to 46.1 µM; activity change, negative = inhibition: at the top concentration
# Description: NIH Chemical Genomics Center [NCGC]
# NIH Molecular Libraries Probe Centers Network [MLPCN]
# Assay Submitter (PI): Marvin Gershengorn
# This project aims to identify small drug-like molecules that activate (agonists) the thyrotropin releasing hormone (TRH) receptor (TRHR) or enhance its TRH-stimulated activity (allosteric enhancers). TRHR, a drug-accessible cell surface receptor expressed in specific brain regions, and its ligand TRH have been implicated in several central nervous system disorders, including depression and anxiety. Small molecule TRHR agonists or allosteric enhancers that are metabolically stable and able to cross the blood-brain barrier might serve as probes to elucidate the roles of brain TRH receptors in animal models, and might be valuable as lead compounds for the development of drugs to treat patients with central nervous system disorders.
# Upon TRHR-Gq activation in TRHR cells, intracellular calcium is released from stores in the endoplasmic reticulum. […] This primary screen measures compound-induced enhancement of an EC20 stimulation of the receptor by its native ligand.
# For the HTS assay freshly prepared cells are plated at a density of 2000/well in 3 ul of complete DMEM medium containing 10% serum in 1536-well plates and cultured over night at 37 C in a humidified incubator with 5% CO2. The next day, 2 ul of a no wash calcium dye (ABD Bioquest) was added to the cells and plates were incubated at room temperature for 1 hour. For the assay, assay plates were loaded into the FDSS kinetic plate reader. A 10 cycle (1 second/cycle) baseline measurement is taken and then the FDSS online 1536 pintool delivers 23 nl of compound library (as well as TRH controls) to the plate. The plate is measured for kinetically at 1 cycle/sec for 180 seconds and is considered to be the agonist portion of the assay (eg, compounds which activate a positive calcium response during this portion are flagged as potential agonists). Following the 180 second read, 1 ul of either an EC20 (positive modulation assay) is delivered by an onboard pipette head. Measurements are taken kinetically for an additional 180 seconds.
# TRHR FDSS Screening Protocol
# 1. Reagent, 3 uL 2000 cells/well 1536 TC treated Black plate in media containing 10% FCS
# 2. Time, 18 hours, 33.5C 5% CO2 (cells grown at 37C)
# 3. Reagent, 2 uL ABD fluo-8 Ca dye
# 4. Time, 30 min-1.5hrs hours, Room temp (6 plates/batch)
# 5. Detector, EX 480/EM 530C, FDSS 10 cycles baseline (1sec/cycle)
# 6. Compound, 23 nL of stock solution from library
# 7. Detector, EX 480/EM 530C, FDSS 230 cycles (1sec/cycle) Agonist mode
# 8. Compound, 1 ul EC20 of TRH made up in HEPES HBSS, 10 nM final
# 9. Detector, EX 480/EM 530C, FDSS 100 cycles (1sec/cycle) Potentiator mode
Compound,Potency,"activity change, negative = inhibition"
N#CCCn1cc(CNC2CCC(O)CC2)c2ccccc21 (stereo not given),"inconclusive: 6.51 µM [activator, single point]",
Cc1ccc(Cl)c(OCC(=O)N2CCc3ccccc3C2)c1,,inactive: -14.7%
O=C(NNC(=O)c1n[nH]c2ccccc12)c1ccccc1,"inconclusive: 0.259 µM [activator, partial curve, poor fit]",
Oc1ccc2ccccc2c1/C=N/Nc1nnc(-c2ncc[nH]2)c2ccccc12,"inconclusive: 32.6 µM [activator, single point]",
O=Cc1ccc(OCc2ccc3c(c2)OCO3)cc1,,inactive: -5.34%
NC(=O)CSc1nnc(-c2ccc(S(=O)(=O)N3CCCCC3)cc2)n1-c1ccccc1,"inconclusive: 0.0461 µM [activator, full curve, poor fit]",
C/C=C/c1ccc(OCCCCNCc2ccco2)c(OC)c1,"inconclusive: 4.61 µM [activator, full curve, poor fit]",
CCCN1C(=O)/C(=C/c2ccc(N3CCOCC3)cc2)NC1=S,"inconclusive: 0.731 µM [activator, partial curve, poor fit]",
C=CCn1c(=O)n(C(=O)OCC)c2cc(Br)ccc21,,inactive: -7.43%
CC(C)c1ccc(N(CC(=O)NCCCN2CCOCC2)S(=O)(=O)c2ccccc2)cc1,,inactive: -2.48%
Cc1ccc(/C=C/c2nc3ccccc3[nH]2)o1,"inconclusive: 7.31 µM [activator, partial curve, poor fit]",
COCCNC(=O)c1cc2c(=O)n3cccc(C)c3nc2n1C,"inconclusive: 5.8 µM [activator, partial curve, poor fit]",
O=C(C1=C(O)C(=O)N(c2nccs2)C1c1ccccc1)c1cc2ccccc2o1 (stereo not given),"inconclusive: 16.4 µM [activator, partial curve, poor fit]",
COc1ccc(N2CCN(CC(=O)N3c4ccccc4CC3C)CC2)cc1 (stereo not given),"inconclusive: 2.91 µM [activator, partial curve, poor fit]",
Cc1c(-n2cc(C(=O)c3ccccc3O)cc(C#N)c2=O)c(=O)n(-c2ccccc2)n1C,,inactive: -7.77%
O=c1ccc2cc3c4c(c2o1)CCCN4CCC3,"inconclusive: 32.6 µM [activator, partial curve, poor fit]",
O=C(CCn1c(=O)sc2ccccc21)Nc1ccon1,,inactive: -1.72%
COc1ccc2nc(NC(=O)C3CC(=O)N(c4ccc5c(c4)OCCO5)C3)sc2c1 (stereo not given),"inconclusive: 2.31 µM [activator, partial curve, poor fit]",
COc1cc(C(=O)NC2CCCC2)c(Br)c(OC)c1OC,,inactive: -1.1%
Oc1c(Cl)cc(Cl)cc1/C=C/c1ccc2cccc(O)c2n1,"inconclusive: 1.03 µM [activator, partial curve, poor fit]",

# Part of the list above in order of molecular weight, high to low:
Compound,Potency,"activity change, negative = inhibition"
COc1ccc(N2CCN(CC(=O)N3c4ccccc4CC3C)CC2)cc1 (stereo not given),"inconclusive: 2.91 µM [activator, partial curve, poor fit]",
O=C(NNC(=O)c1n[nH]c2ccccc12)c1ccccc1,"inconclusive: 0.259 µM [activator, partial curve, poor fit]",
O=Cc1ccc(OCc2ccc3c(c2)OCO3)cc1,,inactive: -5.34%

# Continued.

Compound,Potency,"activity change, negative = inhibition"
CCCCNC(=O)c1cc(-c2ccc(F)cc2)on1,,inactive: -2.27%
COc1ccc(CCNc2oc(-c3ccccc3OC)nc2C#N)cc1OC,"inconclusive: 0.0041 µM [activator, full curve, poor fit]",
CCn1c(C)c(C)c2cc(C(=O)NC3CCCCCC3)ccc21,"inconclusive: 6.51 µM [activator, single point]",
O=C(NCCc1ccc(Cl)cc1)c1cc(=O)[nH]c2ccccc12,"inconclusive: 0.0231 µM [activator, full curve, poor fit]",
CCc1ccc2nc(/N=C(\N)NC(=O)c3ccccc3)nc(C)c2c1,,inactive: 9.23%
O=C(N/N=C/c1coc2ccccc2c1=O)c1cccc([N+](=O)[O-])c1,"inconclusive: 7.31 µM [activator, partial curve, poor fit]",
CSc1nnnn1-c1c(C)cc(C)cc1C,,inactive: 2.92%
Cc1ccc2cc3c(NC(=O)C4CCCO4)nn(CC(C)C)c3nc2c1 (stereo not given),"inconclusive: 6.51 µM [activator, partial curve, poor fit]",
COc1ccc(C(=O)C2CCN(C(=O)c3ccco3)CC2)cc1,"inconclusive: 0.0411 µM [activator, full curve, poor fit]",
CC(C)CC(=O)NC(=S)N1CCCCCC1,"inconclusive: 4.11 µM [activator, single point]",
Cn1cccc1/C=C1\CCC/C(=C\c2cccn2C)C1=O,,inactive: 0.626%
S=c1nc(-c2sccc2OCc2ccc(Cl)cc2Cl)[nH][nH]1,"inconclusive: 0.206 µM [activator, full curve, poor fit]",
NS(=O)(=O)c1ccc(NC(=O)COC(=O)c2cn(-c3ccccc3)nc2-c2ccc(F)cc2)cc1,,inactive: -7.6%
CCc1ccc(CN(C)Cc2nc(-c3cccc(Cl)c3)no2)nc1,,inactive: -11%
CN1/C(=C\C(=S)NC(=O)c2ccc([N+](=O)[O-])cc2)C(C)(C)c2ccccc21,,inactive: -3.92%
O=C(N/N=C/c1cc(Cl)cc(Cl)c1O)c1ccncc1,"inconclusive: 16.4 µM [activator, partial curve, poor fit]",
CN(C)CCCNc1oc(-c2ccccc2Cl)nc1S(=O)(=O)c1ccc(F)cc1,"inconclusive: 20.6 µM [activator, single point]",
O=C(/C=C/c1ccc(N2CCOCC2)cc1)c1ccccc1,"inconclusive: 18.4 µM [activator, partial curve, poor fit]",
CC(CCc1ccccc1)NC(=O)Cn1cccc1C(=O)c1ccccc1 (stereo not given),"inconclusive: 2.59 µM [activator, partial curve, poor fit]",
CN(C)c1ccc(/C=N/NC(=O)Cn2nnc3ccccc32)cc1,"inconclusive: 23.1 µM [activator, single point]",
